PubChem BioAssay AID1508587, Peter MacCallum Cancer Centre, 2020
Test: 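Retest of knockdowns boosting BRAF inhibitor action on lactate release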 (follow-up of hits). Cell system: human WM266.4 melanoma cells with a BRAF V600 mutation. Reagents: single siRNA against human genes, 25 nM. Duration: 96 h. Challenge: vemurafenib 300 nM (about IC25), given 48 h after transfection for 48 h. Measured: 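Medium lactate read by absorbance over DAPI-counted nuclei; ratio with versus without vemurafenib, set against non-targeting siRNA, averaged over 2 replicates; cell number also recorded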. Scale: lactate per cell, drug vs no drug: higher = less drug-induced drop in lactate per cell. Rule for the call: 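a duplex is active when its lactate-per-cell ratio with versus without drug falls under 0.55, i.e. 2 SD below non-targeting; a gene is confirmed if 2 or more of 4 duplexes pass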.
In all, the deposit lists about 1,600 reagents; below is a part drawn at random. 623 of them (39%) count as active. 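Calls are for each duplex; lactate ratios contain extreme outliers.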 Unmarked entries are inactive. Reagents against one gene are numbered here. Not all columns of the deposit are shown.

gene symbol | reagent no. | lactate per cell, drug vs no drug
NRP1 (neuropilin 1) | 1 | 0.6
NRP1 (neuropilin 1) | 2 | 0.52 (active)
NRP1 (neuropilin 1) | 3 | 0.44 (active)
NRP1 (neuropilin 1) | 4 | 0.68
STAT5B (signal transducer and activator of transcription 5B) | 1 | 0.55
STAT5B (signal transducer and activator of transcription 5B) | 2 | 0.77
STAT5B (signal transducer and activator of transcription 5B) | 3 | 0.45 (active)
STAT5B (signal transducer and activator of transcription 5B) | 4 | 0.5 (active)

Continued, starting with the last 2 of the part before.
gene symbol | reagent no. | lactate per cell, drug vs no drug
STAT5B (signal transducer and activator of transcription 5B) | 3 | 0.45 (active)
STAT5B (signal transducer and activator of transcription 5B) | 4 | 0.5 (active)
HDDC2 (HD domain containing 2) | 1 | 0.34 (active)
HDDC2 (HD domain containing 2) | 2 | 0.54 (active)
HDDC2 (HD domain containing 2) | 3 | 0.48 (active)
HDDC2 (HD domain containing 2) | 4 | 0.52 (active)
NOX4 (NADPH oxidase 4) | 1 | 0.55
NOX4 (NADPH oxidase 4) | 2 | 0.57
NOX4 (NADPH oxidase 4) | 3 | 0.54 (active)
NOX4 (NADPH oxidase 4) | 4 | 0.42 (active)
MAP3K7 (mitogen-activated protein kinase kinase kinase 7) | 1 | 0.69
MAP3K7 (mitogen-activated protein kinase kinase kinase 7) | 2 | 0.48 (active)
MAP3K7 (mitogen-activated protein kinase kinase kinase 7) | 3 | 0.99
MAP3K7 (mitogen-activated protein kinase kinase kinase 7) | 4 | 0.61
